Some of the results follow.
compound: COc1ccc(Cn2ccc3cc(C)c(C(=O)NO)cc32)cc1; assay: dose-dependent thermal stabilisation call (2D-TPP, DLPTP, 10% FDR) (binary (1 = stabilised)); higher = stabilised by the compound; conditions: system: HL-60 intact cells; concentration range 0.04-10 µM
Protocol: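 2D thermal proteome profiling in intact HL-60 cells treated with BRD-3811 (0, 0.04, 0.29, 2, 10 uM) for 90 min at 37 C, then heated 3 min at one of 12 temperatures (42-63.9 C). Soluble protein was quantified by TMT10 MS. The value is the DLPTP call of the paper: dose-dependent thermal stabilisation over all temperatures at 10% FDR (F-test of a dose-response against a flat model); one experiment, one call per tested protein.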

Amino acid sequences for entries named in this document (tags omitted). A change or cut given only in a name is not applied to a line headed by its entry.
UniProt Q9BVG9: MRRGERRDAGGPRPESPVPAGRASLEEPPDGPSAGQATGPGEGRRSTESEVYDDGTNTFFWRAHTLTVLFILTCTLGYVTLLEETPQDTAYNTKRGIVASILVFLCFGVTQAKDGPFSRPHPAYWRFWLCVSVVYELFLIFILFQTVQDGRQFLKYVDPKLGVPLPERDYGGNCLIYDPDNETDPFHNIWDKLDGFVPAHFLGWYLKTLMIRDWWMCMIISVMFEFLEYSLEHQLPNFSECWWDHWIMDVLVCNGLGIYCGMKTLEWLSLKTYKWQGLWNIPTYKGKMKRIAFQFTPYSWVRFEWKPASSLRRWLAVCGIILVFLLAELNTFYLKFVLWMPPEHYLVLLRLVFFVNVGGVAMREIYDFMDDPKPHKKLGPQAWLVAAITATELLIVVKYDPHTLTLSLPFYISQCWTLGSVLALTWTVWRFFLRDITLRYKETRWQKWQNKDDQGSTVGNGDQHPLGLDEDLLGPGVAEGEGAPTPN
UniProt O14818: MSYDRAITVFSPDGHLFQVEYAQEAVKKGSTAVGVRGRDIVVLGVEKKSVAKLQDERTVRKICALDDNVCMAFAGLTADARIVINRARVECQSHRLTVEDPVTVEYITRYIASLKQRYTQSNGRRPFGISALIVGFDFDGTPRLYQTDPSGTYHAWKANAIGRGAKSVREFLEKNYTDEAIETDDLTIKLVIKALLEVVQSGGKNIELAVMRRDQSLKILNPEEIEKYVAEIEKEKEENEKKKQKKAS
UniProt O60927: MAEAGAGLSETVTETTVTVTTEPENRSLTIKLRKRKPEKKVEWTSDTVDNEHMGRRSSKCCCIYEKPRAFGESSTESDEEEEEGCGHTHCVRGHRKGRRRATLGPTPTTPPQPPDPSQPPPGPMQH
UniProt Q9BUI4: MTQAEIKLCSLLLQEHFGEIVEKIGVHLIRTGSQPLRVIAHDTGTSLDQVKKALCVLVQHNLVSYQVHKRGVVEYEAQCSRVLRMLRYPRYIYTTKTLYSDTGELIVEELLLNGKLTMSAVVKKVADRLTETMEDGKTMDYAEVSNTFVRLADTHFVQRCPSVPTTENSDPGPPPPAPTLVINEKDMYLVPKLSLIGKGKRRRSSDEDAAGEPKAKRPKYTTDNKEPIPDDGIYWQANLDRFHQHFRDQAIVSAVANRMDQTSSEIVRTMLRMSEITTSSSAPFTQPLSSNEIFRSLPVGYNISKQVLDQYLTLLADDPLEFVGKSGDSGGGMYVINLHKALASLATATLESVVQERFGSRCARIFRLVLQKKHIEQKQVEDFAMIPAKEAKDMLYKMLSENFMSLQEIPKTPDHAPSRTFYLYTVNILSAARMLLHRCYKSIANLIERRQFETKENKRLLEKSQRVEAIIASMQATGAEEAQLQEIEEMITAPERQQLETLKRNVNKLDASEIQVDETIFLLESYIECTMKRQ
UniProt Q96HA1, whole entry: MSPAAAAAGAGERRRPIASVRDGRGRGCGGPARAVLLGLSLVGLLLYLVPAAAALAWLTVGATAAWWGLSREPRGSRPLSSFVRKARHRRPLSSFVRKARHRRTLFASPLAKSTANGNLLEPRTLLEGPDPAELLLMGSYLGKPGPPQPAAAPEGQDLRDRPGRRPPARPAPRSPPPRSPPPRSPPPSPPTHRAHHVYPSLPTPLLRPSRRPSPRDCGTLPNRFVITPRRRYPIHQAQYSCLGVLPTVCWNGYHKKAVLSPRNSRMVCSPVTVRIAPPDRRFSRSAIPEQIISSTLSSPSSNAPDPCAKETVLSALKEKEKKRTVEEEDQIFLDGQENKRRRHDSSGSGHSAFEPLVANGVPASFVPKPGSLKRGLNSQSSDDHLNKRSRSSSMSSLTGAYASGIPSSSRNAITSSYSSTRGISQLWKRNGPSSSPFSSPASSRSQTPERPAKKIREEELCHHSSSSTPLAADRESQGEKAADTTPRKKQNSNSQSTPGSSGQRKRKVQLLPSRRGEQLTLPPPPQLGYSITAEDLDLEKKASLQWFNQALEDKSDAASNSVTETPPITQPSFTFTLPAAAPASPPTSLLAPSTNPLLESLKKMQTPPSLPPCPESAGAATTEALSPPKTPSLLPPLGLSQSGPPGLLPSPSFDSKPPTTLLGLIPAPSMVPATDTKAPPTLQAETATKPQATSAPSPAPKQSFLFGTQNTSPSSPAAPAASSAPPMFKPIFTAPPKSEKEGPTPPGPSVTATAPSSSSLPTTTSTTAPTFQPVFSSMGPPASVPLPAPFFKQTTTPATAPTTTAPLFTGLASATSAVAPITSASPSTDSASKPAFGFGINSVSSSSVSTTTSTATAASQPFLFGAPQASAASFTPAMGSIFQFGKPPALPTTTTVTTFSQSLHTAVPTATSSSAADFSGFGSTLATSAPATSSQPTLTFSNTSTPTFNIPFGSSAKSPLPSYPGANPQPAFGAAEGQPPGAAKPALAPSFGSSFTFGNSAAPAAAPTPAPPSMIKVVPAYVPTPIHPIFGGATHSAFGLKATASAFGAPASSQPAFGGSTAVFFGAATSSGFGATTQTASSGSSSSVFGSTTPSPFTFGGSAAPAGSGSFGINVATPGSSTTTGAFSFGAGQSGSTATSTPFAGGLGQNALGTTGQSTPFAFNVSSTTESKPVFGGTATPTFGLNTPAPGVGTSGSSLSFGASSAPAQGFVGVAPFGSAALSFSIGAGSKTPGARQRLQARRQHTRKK
UniProt Q8IY26: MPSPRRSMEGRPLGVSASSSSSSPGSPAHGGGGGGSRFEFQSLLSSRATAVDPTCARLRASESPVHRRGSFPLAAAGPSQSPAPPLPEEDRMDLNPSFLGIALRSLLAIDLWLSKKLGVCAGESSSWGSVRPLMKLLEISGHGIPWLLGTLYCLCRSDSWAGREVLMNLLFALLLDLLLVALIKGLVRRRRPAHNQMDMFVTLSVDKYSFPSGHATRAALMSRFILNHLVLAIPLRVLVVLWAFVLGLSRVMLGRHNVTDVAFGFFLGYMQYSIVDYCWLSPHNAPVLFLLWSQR
UniProt Q9BT73: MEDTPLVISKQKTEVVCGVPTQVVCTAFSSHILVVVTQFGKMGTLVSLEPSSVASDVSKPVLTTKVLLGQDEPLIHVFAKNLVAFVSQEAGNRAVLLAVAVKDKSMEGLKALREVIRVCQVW
UniProt Q8N490: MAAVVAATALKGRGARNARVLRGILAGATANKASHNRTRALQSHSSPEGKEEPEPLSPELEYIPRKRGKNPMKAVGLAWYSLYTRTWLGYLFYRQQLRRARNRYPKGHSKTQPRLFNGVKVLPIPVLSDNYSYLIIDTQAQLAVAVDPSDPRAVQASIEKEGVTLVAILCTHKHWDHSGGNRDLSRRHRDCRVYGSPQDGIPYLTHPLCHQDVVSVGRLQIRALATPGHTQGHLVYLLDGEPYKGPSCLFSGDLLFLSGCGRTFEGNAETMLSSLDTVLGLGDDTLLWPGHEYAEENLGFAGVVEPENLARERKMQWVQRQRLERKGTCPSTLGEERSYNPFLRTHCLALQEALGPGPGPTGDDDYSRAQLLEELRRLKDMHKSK
UniProt O94903: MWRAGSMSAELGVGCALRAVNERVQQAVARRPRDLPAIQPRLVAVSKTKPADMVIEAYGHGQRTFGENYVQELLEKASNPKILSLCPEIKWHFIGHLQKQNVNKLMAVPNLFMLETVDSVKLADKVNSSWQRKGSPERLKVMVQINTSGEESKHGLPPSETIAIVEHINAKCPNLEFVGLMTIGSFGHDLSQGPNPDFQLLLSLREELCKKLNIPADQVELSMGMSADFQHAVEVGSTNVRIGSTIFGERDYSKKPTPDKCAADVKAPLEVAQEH
UniProt O15318: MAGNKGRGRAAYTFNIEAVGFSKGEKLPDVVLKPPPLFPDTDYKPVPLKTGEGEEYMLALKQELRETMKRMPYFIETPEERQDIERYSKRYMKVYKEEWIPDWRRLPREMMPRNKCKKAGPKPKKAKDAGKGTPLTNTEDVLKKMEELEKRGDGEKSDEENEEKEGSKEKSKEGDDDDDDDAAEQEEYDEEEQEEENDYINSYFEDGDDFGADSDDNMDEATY
UniProt Q9UMS4: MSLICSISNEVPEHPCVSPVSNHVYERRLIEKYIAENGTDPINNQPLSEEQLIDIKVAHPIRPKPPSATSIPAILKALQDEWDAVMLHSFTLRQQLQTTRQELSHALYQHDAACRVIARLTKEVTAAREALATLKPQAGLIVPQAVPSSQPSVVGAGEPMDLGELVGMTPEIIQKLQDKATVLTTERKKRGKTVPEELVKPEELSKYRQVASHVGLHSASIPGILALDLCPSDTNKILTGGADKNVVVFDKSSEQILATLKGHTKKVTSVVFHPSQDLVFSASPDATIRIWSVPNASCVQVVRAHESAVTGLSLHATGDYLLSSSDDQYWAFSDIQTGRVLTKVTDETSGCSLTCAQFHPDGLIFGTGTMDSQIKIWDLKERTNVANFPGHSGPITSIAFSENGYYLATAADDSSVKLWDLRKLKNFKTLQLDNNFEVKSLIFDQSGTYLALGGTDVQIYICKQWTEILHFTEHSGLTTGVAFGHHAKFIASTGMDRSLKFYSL
UniProt Q8WY54: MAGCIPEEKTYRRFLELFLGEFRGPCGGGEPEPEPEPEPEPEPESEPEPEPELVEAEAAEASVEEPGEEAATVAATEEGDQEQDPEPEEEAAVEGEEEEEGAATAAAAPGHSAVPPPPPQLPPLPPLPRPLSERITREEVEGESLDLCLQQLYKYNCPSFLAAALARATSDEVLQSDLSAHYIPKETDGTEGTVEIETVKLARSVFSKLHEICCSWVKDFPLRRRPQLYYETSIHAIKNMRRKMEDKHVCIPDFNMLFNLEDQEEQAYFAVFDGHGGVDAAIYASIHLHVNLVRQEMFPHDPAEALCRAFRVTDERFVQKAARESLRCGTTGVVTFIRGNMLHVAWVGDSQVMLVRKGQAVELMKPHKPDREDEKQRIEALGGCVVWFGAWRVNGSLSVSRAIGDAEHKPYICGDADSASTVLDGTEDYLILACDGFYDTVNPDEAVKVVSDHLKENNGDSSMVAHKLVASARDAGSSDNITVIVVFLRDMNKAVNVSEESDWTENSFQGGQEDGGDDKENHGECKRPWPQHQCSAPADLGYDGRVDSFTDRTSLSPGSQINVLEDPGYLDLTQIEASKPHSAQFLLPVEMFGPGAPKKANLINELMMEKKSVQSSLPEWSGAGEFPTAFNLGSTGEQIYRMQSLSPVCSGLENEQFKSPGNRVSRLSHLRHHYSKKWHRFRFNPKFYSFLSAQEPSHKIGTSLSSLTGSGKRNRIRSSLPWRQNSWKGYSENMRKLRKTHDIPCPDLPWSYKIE
UniProt O14802: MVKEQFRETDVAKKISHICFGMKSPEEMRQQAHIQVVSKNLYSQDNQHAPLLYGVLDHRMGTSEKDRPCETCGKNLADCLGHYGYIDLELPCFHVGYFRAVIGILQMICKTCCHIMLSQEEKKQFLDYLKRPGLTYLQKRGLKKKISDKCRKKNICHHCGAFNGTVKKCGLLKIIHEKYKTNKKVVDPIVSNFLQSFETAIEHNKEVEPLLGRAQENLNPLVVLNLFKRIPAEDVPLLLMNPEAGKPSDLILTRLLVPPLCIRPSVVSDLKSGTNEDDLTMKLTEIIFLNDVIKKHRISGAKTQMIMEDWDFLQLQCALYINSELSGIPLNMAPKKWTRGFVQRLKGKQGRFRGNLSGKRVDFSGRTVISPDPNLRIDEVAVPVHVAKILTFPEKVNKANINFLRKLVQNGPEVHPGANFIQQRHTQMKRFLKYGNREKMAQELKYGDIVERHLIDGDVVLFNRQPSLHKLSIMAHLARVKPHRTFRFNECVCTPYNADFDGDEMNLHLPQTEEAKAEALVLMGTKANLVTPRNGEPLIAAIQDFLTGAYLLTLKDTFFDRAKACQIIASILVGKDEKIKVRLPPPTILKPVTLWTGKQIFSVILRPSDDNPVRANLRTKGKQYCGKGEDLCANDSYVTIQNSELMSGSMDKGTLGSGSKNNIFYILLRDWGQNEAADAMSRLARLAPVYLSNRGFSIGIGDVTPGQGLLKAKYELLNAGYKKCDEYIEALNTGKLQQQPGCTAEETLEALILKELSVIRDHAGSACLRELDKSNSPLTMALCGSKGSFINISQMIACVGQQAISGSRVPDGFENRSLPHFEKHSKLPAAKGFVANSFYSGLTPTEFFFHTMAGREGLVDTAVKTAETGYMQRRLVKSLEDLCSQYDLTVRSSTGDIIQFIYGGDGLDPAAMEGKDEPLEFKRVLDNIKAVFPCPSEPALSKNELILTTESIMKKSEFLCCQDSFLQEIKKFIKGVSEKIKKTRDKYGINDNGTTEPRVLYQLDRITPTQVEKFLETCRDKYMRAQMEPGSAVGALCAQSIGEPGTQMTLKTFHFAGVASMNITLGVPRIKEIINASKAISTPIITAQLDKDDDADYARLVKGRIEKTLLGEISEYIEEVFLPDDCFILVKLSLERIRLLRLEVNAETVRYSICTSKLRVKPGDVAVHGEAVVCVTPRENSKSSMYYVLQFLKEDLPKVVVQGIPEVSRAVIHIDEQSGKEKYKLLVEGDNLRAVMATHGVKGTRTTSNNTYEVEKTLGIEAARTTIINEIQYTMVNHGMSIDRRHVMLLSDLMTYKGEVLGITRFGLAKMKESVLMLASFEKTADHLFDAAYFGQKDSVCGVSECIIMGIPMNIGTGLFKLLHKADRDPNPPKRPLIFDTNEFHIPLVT

Target | dose-dependent thermal stabilisation call
PTDSS2 (UniProt Q9BVG9) | inactive: 0
POLR3D (UniProt P05423) | inactive: 0
PSMA7 (UniProt O14818) | inactive: 0
PPP1R12C (UniProt Q9BZL4) | inactive: 0
PPP1R11 (UniProt O60927) | inactive: 0
PSMC6 (UniProt P62333) | inactive: 0
PPP3CB (UniProt P16298) | inactive: 0
PNPLA8 (UniProt Q9NP80) | inactive: 0
PPM1H (UniProt Q9ULR3) | inactive: 0
PNO1 (UniProt Q9NRX1) | inactive: 0
POLR3C (UniProt Q9BUI4) | inactive: 0
POM121 (UniProt Q96HA1) | inactive: 0
PTMS (UniProt P20962) | inactive: 0
PPP1R10 (UniProt Q96QC0) | inactive: 0
PPAPDC2 (UniProt Q8IY26) | inactive: 0
POLR2C (UniProt P19387) | inactive: 0
PRPF8 (UniProt Q6P2Q9) | inactive: 0
PSD4 (UniProt Q8NDX1) | inactive: 0
PSMG3 (UniProt Q9BT73) | inactive: 0
PRUNE (UniProt Q86TP1) | inactive: 0

Target | dose-dependent thermal stabilisation call
PTK2B (UniProt Q14289) | active: 1
POLR2K (UniProt P53803) | inactive: 0
PPP2R5C (UniProt Q13362) | inactive: 0
PTCD1 (UniProt O75127) | inactive: 0
PTPLAD2 (UniProt Q5VWC8) | inactive: 0
POLE4 (UniProt Q9NR33) | inactive: 0
PNKD (UniProt Q8N490) | active: 1
PSMD8 (UniProt P48556) | inactive: 0
PSMD7 (UniProt P51665) | inactive: 0
PRPF4B | inactive: 0
PRKCI (UniProt P41743) | inactive: 0
PROSC (UniProt O94903) | inactive: 0
POLR3G (UniProt O15318) | inactive: 0
PRKAR2A (UniProt P13861) | inactive: 0
PRPF19 (UniProt Q9UMS4) | inactive: 0
PPM1E (UniProt Q8WY54) | inactive: 0
POLR3A (UniProt O14802) | inactive: 0
PPP5C (UniProt P53041) | inactive: 0
POLR3K (UniProt Q9Y2Y1) | inactive: 0
PSMD3 (UniProt O43242) | inactive: 0

Fetched one by one from the entries so far, 2 records:
Target | dose-dependent thermal stabilisation call
PNPLA8 (UniProt Q9NP80) | inactive: 0
POLR3G (UniProt O15318) | inactive: 0
